No constants are given. Whether binding was seen depends on the method and setting. In cells and extracts the contact can be indirect. Some binding calls cover weakened binding; strength is not graded here.

The chains behind the UniProt entries cited, without tags or fusion partners.
UniProt P00546: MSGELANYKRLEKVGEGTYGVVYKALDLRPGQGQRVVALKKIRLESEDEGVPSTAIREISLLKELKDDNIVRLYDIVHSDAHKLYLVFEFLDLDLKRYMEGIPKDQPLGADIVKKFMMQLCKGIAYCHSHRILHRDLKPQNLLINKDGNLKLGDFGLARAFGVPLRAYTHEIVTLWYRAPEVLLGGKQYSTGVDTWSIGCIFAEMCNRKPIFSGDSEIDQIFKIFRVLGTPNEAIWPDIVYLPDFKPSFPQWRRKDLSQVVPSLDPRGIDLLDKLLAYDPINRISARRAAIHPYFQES

This is an account of results in paper doi:10.1101/2022.03.31.486303 (bioRxiv, 2022).

The assay concerns the target T1, 1xStrep-Clb2 (budding yeast) (UniProt P24869).
T1 sequence: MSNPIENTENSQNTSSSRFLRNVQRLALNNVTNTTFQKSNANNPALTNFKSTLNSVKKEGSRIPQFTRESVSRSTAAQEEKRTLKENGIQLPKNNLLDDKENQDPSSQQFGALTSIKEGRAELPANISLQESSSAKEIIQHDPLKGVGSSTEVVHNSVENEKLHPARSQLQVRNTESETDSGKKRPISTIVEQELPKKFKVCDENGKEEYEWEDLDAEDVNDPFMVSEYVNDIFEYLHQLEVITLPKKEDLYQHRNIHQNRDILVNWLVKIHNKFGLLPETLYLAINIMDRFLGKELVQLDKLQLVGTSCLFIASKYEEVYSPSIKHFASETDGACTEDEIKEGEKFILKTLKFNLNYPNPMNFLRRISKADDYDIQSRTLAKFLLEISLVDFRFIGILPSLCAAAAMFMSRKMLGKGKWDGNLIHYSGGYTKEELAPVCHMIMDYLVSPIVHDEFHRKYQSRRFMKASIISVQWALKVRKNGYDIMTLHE
In words: pull-down.

Regarding “Cdc28 (from UniProt P00546 1-298) (enzyme)”, the binding result is on record as “binds”.

B1: Cks1 (protein, UniProt P20486 1-150)
chain: MYHHYHAFQGRKLTDQERARVLEFQDSIHYSPRYSDDNYEYRHVMLPKAMLKVIPSDYFNSEVGTLRILTEDEWRGLGITQSLGWEHYECHAPEPHILLFKRPLNYEAELRAATAAAQQQQQQQQQQQQQQQQHQTQSISNDMQVPPQIS
Regarding B1, the binding result is reported as “binds”.
